Consider 1 substance from paper PMC3351436, “Direct and Allosteric Inhibition of the FGF2/HSPGs/FGFR1 Ternary Complex Formation by an Antiangiogenic, Thrombospondin-1-Mimic Small Molecule” (PLoS ONE, 2012).

Protein sequences, listed by entry. Tags and fused reporters are not part of them. Residues count along the entry.
UniProt P16092, residues 22-822: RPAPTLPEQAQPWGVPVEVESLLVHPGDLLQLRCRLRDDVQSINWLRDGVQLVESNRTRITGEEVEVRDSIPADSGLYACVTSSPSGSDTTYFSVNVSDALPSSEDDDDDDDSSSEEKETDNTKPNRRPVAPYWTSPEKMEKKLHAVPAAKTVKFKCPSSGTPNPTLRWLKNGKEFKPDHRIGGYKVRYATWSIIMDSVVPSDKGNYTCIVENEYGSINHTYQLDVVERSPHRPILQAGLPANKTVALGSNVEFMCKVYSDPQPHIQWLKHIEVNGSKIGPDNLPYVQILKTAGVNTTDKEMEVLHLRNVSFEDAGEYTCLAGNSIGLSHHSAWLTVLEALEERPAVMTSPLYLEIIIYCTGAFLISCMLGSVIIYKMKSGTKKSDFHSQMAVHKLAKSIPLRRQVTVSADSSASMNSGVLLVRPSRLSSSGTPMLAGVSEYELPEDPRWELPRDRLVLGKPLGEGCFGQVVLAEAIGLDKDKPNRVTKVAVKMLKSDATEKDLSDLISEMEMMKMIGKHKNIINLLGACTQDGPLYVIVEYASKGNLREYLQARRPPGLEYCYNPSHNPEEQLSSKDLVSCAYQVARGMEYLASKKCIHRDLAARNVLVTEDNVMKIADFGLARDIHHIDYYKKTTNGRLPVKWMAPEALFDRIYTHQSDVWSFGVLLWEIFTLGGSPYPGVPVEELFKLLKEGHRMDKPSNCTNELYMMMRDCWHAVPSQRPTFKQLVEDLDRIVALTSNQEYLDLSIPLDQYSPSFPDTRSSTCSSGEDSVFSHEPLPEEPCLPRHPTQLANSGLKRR
UniProt P09038, residues 134-288: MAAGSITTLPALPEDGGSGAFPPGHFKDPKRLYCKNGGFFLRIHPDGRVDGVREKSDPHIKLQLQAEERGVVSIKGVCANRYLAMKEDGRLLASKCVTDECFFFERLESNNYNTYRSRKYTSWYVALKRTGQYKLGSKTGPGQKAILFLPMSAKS

This assay addresses FGFR1 on FGFR1-transfected A745 CHO flg-1A cells (UniProt P16092). In words: binding of Europium-labeled FGF2 to cells; Eu-FGF2 (10 ng/ml) on FGFR1-transfected, HSPG-deficient A745 CHO flg-1A cells, in the presence of sm27 or unlabeled FGF2 (1.5 µg/ml); only the binder purified.

Results are given in words; binding and its absence hold for the method and conditions named. Some results given as binding are weak or reduced against the parent protein; the word gives no strength.

“Human recombinant FGF2 (from UniProt P09038-2 1-155) (ligand)”: the binding result is on record as “binds”.
